In PubChem BioAssay AID853 (Columbia University Molecular Screening Center, 2007) one finds fraction fluorescence in grains data, which are given here for two molecules.

Molecules are shown by their SMILES. The list shows a part of the results.

The experiment in a line: clearance of mutant huntingtin inclusions, primary screen, imaging, HeLa Exon1htt(103Q)mCFP, confocal imaging (AID 853).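 Further: cells exposed to compound for three days before fixation.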 Conditions: aggregate imaging, measured here: aggregate grain fluorescence fraction, at 1.5 µM, stronger effect = lower value.
For the molecule `COc1ccc(NC2CCN(CCc3ccccc3)CC2)c(OC)c1`, the fraction fluorescence in grains is 51.5.
Next, `N#CC1(Nc2ccccc2)CCN(CCc2ccccc2)CC1`: 30.7.
